Taken from: PubChem BioAssay AID602196 (INSERM, 2012)
Assay: 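Modifiers of cisplatin sensitivity in A549 cells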. Cells: human A549 lung cancer cells. Reagent: siRNA pair against human genes. Duration: 48 h transfection before cisplatin; time from cisplatin to read-out not stated. Challenge: cisplatin at a dose killing half of control-siRNA cells; exact dose and duration not given. Measurement: 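Cisplatin cell death as a shift from the 50% death seen with control siRNA; siRNAs toxic or growth-blocking alone scored 0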. Reading the numbers: two-siRNA summed score (-2 to +2): higher = both siRNAs protect from cisplatin killing; -2 means both sensitise; mean protection from cisplatin (shift in death) and protection from cisplatin (shift in death), siRNA C: higher = protection from cisplatin killing. Call rule: 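siRNAs harmful alone (LDH or WST-1) get 0; others get +1 for less and -1 for more cisplatin killing; genes are active when the two siRNAs give the same sign, summing to ±2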. Calls: active = both siRNAs shift cisplatin killing the same way; inactive = no consistent shift, or siRNA harmful alone.
Shown is a random part of about 23,000 reagents tested. Over the whole deposit, 455 (2%) were called active. 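Active includes both protection and sensitisation; some change values fall well beyond the stated -50 to +50 range.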 A number with no mark means an inactive call. Not all columns of the deposit are shown. No sequences are given here. Not stated in the record: the amount of reagent.

gene symbol	two-siRNA summed score (-2 to +2)	mean protection from cisplatin (shift in death) (%)	protection from cisplatin (shift in death), siRNA C (%)
LY96 (GeneID 23643)	0	4.9	6.8
CORO7 (GeneID 79585)	0	4.3	-0.2
F5 (GeneID 2153)	0	10	8.2
RAD9A (GeneID 5883)	0	-3.8	2
FAM86C1P (GeneID 55199)	0	-3.1	-10.3
ADARB2 (GeneID 105)	0	4.9	10.6
MGC10334	0	6.7	15.1
CALML3 (GeneID 810)	0	3.4	5.1

The list goes on; the last 2 above are carried over.
gene symbol	two-siRNA summed score (-2 to +2)	mean protection from cisplatin (shift in death) (%)	protection from cisplatin (shift in death), siRNA C (%)
MGC10334	0	6.7	15.1
CALML3 (GeneID 810)	0	3.4	5.1
CMTM5 (GeneID 116173)	0	11.2	10.4
LOC401135	0	5.6	18.1
SLC22A20P (GeneID 440044)	1	15.1	6.4
TMEM26 (GeneID 219623)	0	-1.2	-0.1
FMR1 (GeneID 2332)	0	9.6	9.8
YIPF6 (GeneID 286451)	1	2.6	-2.1
RBP4 (GeneID 5950)	-1	-2.7	6.5
GLDC (GeneID 2731)	0	-1.3	-7.8
KCTD12 (GeneID 115207)	0	-9.1	-4
TDRD7 (GeneID 23424)	0	6.4	7.7
ACSF3 (GeneID 197322)	0	4.6	-1.2
UTP4 (GeneID 84916)	0	14.2	12.9
IL10RB (GeneID 3588)	0	-1.3	0.1
LOC387709	0	-1.4	-6.4
LOC388461	0	18.5	19.8
